The results in this text go back to article doi:10.1101/2023.08.23.554515.

Chains of the proteins cited; added tags and fusions are not shown.
UniProt Q9C5X9: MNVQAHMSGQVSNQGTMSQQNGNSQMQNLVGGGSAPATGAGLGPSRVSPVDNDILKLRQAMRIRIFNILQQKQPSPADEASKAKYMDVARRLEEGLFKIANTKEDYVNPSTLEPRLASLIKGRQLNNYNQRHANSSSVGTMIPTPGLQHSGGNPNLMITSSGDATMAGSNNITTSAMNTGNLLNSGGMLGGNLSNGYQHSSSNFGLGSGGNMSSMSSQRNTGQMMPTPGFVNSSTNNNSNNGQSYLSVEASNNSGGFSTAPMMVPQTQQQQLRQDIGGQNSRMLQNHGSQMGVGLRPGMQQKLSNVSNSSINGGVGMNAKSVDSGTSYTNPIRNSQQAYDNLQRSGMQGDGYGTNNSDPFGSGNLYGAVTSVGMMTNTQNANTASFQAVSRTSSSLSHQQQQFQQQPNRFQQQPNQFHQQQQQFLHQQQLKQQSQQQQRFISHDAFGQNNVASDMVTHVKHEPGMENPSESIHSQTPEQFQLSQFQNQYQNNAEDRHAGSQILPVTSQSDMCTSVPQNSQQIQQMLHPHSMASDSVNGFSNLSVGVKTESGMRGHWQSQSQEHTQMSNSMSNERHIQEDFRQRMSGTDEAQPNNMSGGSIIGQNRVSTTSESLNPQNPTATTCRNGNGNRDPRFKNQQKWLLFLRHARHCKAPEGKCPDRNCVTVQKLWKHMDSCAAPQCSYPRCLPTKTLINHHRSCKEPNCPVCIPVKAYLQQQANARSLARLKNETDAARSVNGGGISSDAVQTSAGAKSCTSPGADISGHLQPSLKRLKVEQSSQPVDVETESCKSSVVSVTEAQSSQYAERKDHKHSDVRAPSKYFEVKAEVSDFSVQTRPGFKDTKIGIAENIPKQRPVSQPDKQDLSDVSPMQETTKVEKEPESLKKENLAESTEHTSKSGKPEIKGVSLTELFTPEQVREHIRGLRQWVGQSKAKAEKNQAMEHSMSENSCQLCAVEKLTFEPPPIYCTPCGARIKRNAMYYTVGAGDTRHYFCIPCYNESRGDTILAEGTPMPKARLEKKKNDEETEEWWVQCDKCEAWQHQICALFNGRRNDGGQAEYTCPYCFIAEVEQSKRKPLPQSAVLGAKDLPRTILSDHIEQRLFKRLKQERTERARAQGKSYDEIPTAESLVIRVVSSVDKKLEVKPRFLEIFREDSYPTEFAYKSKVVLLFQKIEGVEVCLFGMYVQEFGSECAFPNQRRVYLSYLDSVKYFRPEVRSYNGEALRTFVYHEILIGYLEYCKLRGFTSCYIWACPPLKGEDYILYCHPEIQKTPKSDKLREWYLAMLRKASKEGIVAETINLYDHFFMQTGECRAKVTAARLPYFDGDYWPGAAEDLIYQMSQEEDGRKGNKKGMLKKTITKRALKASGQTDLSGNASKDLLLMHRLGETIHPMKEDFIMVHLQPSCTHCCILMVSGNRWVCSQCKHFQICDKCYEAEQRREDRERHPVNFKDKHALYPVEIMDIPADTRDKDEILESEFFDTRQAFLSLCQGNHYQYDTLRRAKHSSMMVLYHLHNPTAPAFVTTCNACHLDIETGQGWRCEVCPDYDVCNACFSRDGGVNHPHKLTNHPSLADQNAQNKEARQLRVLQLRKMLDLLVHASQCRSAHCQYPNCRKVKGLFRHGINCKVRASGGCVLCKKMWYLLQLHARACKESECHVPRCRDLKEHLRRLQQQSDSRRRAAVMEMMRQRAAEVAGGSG

Assay [1] has as its target HAC1 (yeast two-hybrid fusion) (Arabidopsis thaliana) (UniProt Q9C5X9). In words: two-hybrid; Gal4 Matchmaker system, pGAD-T7 and pGBK-T7 in yeast AH109, growth on SD-LTHA; 3-AT added for auto-activating constructs (5 mM for SWI3C, BRIP2 and HAC1).
Assay [2] concerns the target T1, LUH (yeast two-hybrid fusion) (Arabidopsis thaliana) (UniProt O48847).
T1 sequence: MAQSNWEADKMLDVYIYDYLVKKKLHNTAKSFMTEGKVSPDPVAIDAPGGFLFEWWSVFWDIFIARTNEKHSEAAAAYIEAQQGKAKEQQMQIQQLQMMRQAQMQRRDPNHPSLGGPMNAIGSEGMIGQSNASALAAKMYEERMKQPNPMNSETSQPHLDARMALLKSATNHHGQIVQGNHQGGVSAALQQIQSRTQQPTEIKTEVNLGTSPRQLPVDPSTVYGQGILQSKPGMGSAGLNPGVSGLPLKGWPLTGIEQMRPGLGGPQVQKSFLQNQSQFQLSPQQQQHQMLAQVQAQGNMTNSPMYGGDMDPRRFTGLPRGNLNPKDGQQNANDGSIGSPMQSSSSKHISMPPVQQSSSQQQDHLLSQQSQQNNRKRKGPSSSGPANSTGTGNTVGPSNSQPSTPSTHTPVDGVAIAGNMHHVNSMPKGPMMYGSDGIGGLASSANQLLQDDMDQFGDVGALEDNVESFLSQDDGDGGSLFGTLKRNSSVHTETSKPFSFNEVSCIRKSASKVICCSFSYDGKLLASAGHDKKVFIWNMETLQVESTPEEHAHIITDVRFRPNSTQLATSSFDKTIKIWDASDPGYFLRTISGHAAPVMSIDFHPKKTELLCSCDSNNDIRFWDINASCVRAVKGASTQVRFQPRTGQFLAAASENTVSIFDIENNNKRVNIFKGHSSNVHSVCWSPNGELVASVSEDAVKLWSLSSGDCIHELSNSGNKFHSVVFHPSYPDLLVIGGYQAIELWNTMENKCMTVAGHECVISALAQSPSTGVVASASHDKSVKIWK
The assay is described as above.

For assay [3], the target named is HAC1, YFP-C fusion (BiFC) (Arabidopsis thaliana) (UniProt Q9C5X9). In words: split reporter; BiFC: YFP-N and YFP-C fusions co-infiltrated with p19 into Nicotiana benthamiana leaves, confocal imaging two days after infiltration.

No constants are given. Whether binding was seen depends on the method and setting. For part of these data: In cells and extracts the contact can be indirect. Some entries that bind do so weakly or less than the wild type. Sequences can lack the tags named with a protein.

B1: FAMA (yeast two-hybrid fusion) (protein, UniProt Q56YJ8 1-414)
chain: MDKDYSAPNFLGESSGGNDDNSSGMIDYMFNRNLQQQQKQSMPQQQQHQLSPSGFGATPFDKMNFSDVMQFADFGSKLALNQTRNQDDQETGIDPVYFLKFPVLNDKIEDHNQTQHLMPSHQTSQEGGECGGNIGNVFLEEKEDQDDDNDNNSVQLRFIGGEEEDRENKNVTKKEVKSKRKRARTSKTSEEVESQRMTHIAVERNRRKQMNEHLRVLRSLMPGSYVQRGDQASIIGGAIEFVRELEQLLQCLESQKRRRILGETGRDMTTTTTSSSSPITTVANQAQPLIITGNVTELEGGGGLREETAENKSCLADVEVKLLGFDAMIKILSRRRPGQLIKTIAALEDLHLSILHTNITTMEQTVLYSFNVKITSETRFTAEDIASSIQQIFSFIHANTNISGSSNLGNIVFT
Take B1: the binding entry in assay [1] is given as “binds weakly”; in assay [2] it was “binds”.

B2: FAMA, YFP-N fusion (BiFC) (protein, UniProt Q56YJ8 1-414)
chain: MDKDYSAPNFLGESSGGNDDNSSGMIDYMFNRNLQQQQKQSMPQQQQHQLSPSGFGATPFDKMNFSDVMQFADFGSKLALNQTRNQDDQETGIDPVYFLKFPVLNDKIEDHNQTQHLMPSHQTSQEGGECGGNIGNVFLEEKEDQDDDNDNNSVQLRFIGGEEEDRENKNVTKKEVKSKRKRARTSKTSEEVESQRMTHIAVERNRRKQMNEHLRVLRSLMPGSYVQRGDQASIIGGAIEFVRELEQLLQCLESQKRRRILGETGRDMTTTTTSSSSPITTVANQAQPLIITGNVTELEGGGGLREETAENKSCLADVEVKLLGFDAMIKILSRRRPGQLIKTIAALEDLHLSILHTNITTMEQTVLYSFNVKITSETRFTAEDIASSIQQIFSFIHANTNISGSSNLGNIVFT
With B2, the binding result in assay [3] is “binds weakly”.

B3: SCRM, activation domain fusion (yeast two-hybrid) (protein, UniProt Q9LSE2 1-494)
chain: MGLDGNNGGGVWLNGGGGEREENEEGSWGRNQEDGSSQFKPMLEGDWFSSNQPHPQDLQMLQNQPDFRYFGGFPFNPNDNLLLQHSIDSSSSCSPSQAFSLDPSQQNQFLSTNNNKGCLLNVPSSANPFDNAFEFGSESGFLNQIHAPISMGFGSLTQLGNRDLSSVPDFLSARSLLAPESNNNNTMLCGGFTAPLELEGFGSPANGGFVGNRAKVLKPLEVLASSGAQPTLFQKRAAMRQSSGSKMGNSESSGMRRFSDDGDMDETGIEVSGLNYESDEINESGKAAESVQIGGGGKGKKKGMPAKNLMAERRRRKKLNDRLYMLRSVVPKISKMDRASILGDAIDYLKELLQRINDLHNELESTPPGSLPPTSSSFHPLTPTPQTLSCRVKEELCPSSLPSPKGQQARVEVRLREGRAVNIHMFCGRRPGLLLATMKALDNLGLDVQQAVISCFNGFALDVFRAEQCQEGQEILPDQIKAVLFDTAGYAGMI
As to B3, the binding result in assay [1] is given as “binds weakly”; in assay [2] it was “binds”.

B4: SCRM, YFP-N fusion (BiFC) (protein, UniProt Q9LSE2 1-494)
chain: MGLDGNNGGGVWLNGGGGEREENEEGSWGRNQEDGSSQFKPMLEGDWFSSNQPHPQDLQMLQNQPDFRYFGGFPFNPNDNLLLQHSIDSSSSCSPSQAFSLDPSQQNQFLSTNNNKGCLLNVPSSANPFDNAFEFGSESGFLNQIHAPISMGFGSLTQLGNRDLSSVPDFLSARSLLAPESNNNNTMLCGGFTAPLELEGFGSPANGGFVGNRAKVLKPLEVLASSGAQPTLFQKRAAMRQSSGSKMGNSESSGMRRFSDDGDMDETGIEVSGLNYESDEINESGKAAESVQIGGGGKGKKKGMPAKNLMAERRRRKKLNDRLYMLRSVVPKISKMDRASILGDAIDYLKELLQRINDLHNELESTPPGSLPPTSSSFHPLTPTPQTLSCRVKEELCPSSLPSPKGQQARVEVRLREGRAVNIHMFCGRRPGLLLATMKALDNLGLDVQQAVISCFNGFALDVFRAEQCQEGQEILPDQIKAVLFDTAGYAGMI
As for B4, the binding result in assay [3] was “binds weakly”.

B5: MUTE (yeast two-hybrid fusion) (protein, UniProt Q9M8K6 1-202)
chain: MSHIAVERNRRRQMNEHLKSLRSLTPCFYIKRGDQASIIGGVIEFIKELQQLVQVLESKKRRKTLNRPSFPYDHQTIEPSSLGAATTRVPFSRIENVMTTSTFKEVGACCNSPHANVEAKISGSNVVLRVVSRRIVGQLVKIISVLEKLSFQVLHLNISSMEETVLYFFVVKIGLECHLSLEELTLEVQKSFVSDEVIVSTN
Take B5: the binding entry in assay [1] is “binds weakly”.

B6: MUTE, YFP-N fusion (BiFC) (protein, UniProt Q9M8K6 1-202)
chain: MSHIAVERNRRRQMNEHLKSLRSLTPCFYIKRGDQASIIGGVIEFIKELQQLVQVLESKKRRKTLNRPSFPYDHQTIEPSSLGAATTRVPFSRIENVMTTSTFKEVGACCNSPHANVEAKISGSNVVLRVVSRRIVGQLVKIISVLEKLSFQVLHLNISSMEETVLYFFVVKIGLECHLSLEELTLEVQKSFVSDEVIVSTN
For B6, in assay [3], the binding entry is “binds weakly”.

B7: LUH (yeast two-hybrid fusion) (protein, UniProt O48847 1-787)
chain: MAQSNWEADKMLDVYIYDYLVKKKLHNTAKSFMTEGKVSPDPVAIDAPGGFLFEWWSVFWDIFIARTNEKHSEAAAAYIEAQQGKAKEQQMQIQQLQMMRQAQMQRRDPNHPSLGGPMNAIGSEGMIGQSNASALAAKMYEERMKQPNPMNSETSQPHLDARMALLKSATNHHGQIVQGNHQGGVSAALQQIQSRTQQPTEIKTEVNLGTSPRQLPVDPSTVYGQGILQSKPGMGSAGLNPGVSGLPLKGWPLTGIEQMRPGLGGPQVQKSFLQNQSQFQLSPQQQQHQMLAQVQAQGNMTNSPMYGGDMDPRRFTGLPRGNLNPKDGQQNANDGSIGSPMQSSSSKHISMPPVQQSSSQQQDHLLSQQSQQNNRKRKGPSSSGPANSTGTGNTVGPSNSQPSTPSTHTPVDGVAIAGNMHHVNSMPKGPMMYGSDGIGGLASSANQLLQDDMDQFGDVGALEDNVESFLSQDDGDGGSLFGTLKRNSSVHTETSKPFSFNEVSCIRKSASKVICCSFSYDGKLLASAGHDKKVFIWNMETLQVESTPEEHAHIITDVRFRPNSTQLATSSFDKTIKIWDASDPGYFLRTISGHAAPVMSIDFHPKKTELLCSCDSNNDIRFWDINASCVRAVKGASTQVRFQPRTGQFLAAASENTVSIFDIENNNKRVNIFKGHSSNVHSVCWSPNGELVASVSEDAVKLWSLSSGDCIHELSNSGNKFHSVVFHPSYPDLLVIGGYQAIELWNTMENKCMTVAGHECVISALAQSPSTGVVASASHDKSVKIWK
Take B7: the binding result in assay [1] is “binds”.
